Holding throughout (assay): log2 fold change, soluble protein after heating vs DMSO (PISA); higher = thermal stabilisation; K562 cells, 10 uM, 30 min; active = over 0.2 and 3.5 SD of the protein, either way, in both replicates (recomputed)
Compound in assay [1]: NC(=O)Nc1cc(-c2cccc(F)c2)sc1C(=O)N[C@H]1CCCNC1
In short, it runs like this:
(§1)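 Soluble protein was quantified by TMTpro 16plex LC-MS/MS after channel sums were equalised. It was obtained as the supernatant after 21,000xg for 90 min from pooled aliquots of K562 cells (2×10^6 cells/mL, 10 μM compound, 30 min) heated for 3 min across 48°C-58°C and extracted in PBS with 0.5% NP-40 at 4°C. Thermal stability values are relative to control samples and come from duplicates. They are given as log2 fold changes.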

The chains behind the UniProt entries cited, without tags or fusion partners. Where a name states a change or a piece, a line headed by the entry shows the natural chain unless it says otherwise.
UniProt Q92530: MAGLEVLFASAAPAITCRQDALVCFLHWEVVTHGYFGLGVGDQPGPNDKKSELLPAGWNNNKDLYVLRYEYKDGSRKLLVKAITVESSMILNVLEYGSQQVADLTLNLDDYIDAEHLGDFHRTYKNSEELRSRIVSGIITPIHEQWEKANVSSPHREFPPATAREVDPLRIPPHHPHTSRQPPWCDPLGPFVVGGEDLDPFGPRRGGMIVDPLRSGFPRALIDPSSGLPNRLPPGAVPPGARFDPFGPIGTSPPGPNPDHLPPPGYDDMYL
UniProt P06737: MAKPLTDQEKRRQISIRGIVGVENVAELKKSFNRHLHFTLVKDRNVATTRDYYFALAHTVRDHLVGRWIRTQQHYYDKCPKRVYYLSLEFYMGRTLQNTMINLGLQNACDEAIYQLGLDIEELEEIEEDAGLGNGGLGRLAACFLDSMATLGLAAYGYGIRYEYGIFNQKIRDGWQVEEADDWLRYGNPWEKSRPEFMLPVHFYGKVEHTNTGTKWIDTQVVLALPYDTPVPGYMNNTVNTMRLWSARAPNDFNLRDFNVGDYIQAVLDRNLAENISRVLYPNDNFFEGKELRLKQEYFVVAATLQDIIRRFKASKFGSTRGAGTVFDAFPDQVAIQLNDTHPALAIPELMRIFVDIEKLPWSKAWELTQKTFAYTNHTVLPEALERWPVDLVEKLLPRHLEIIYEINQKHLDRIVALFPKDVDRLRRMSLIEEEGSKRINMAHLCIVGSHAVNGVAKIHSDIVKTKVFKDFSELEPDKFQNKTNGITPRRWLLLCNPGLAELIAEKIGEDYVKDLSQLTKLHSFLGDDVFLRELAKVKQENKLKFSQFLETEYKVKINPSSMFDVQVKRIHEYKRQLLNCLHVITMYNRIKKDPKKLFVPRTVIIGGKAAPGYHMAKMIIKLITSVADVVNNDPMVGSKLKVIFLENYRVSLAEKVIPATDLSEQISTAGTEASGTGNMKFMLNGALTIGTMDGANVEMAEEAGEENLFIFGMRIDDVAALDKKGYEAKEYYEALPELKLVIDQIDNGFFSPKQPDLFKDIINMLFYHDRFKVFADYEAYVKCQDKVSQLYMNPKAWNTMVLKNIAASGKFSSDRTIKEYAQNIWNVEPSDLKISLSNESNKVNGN
UniProt Q15257: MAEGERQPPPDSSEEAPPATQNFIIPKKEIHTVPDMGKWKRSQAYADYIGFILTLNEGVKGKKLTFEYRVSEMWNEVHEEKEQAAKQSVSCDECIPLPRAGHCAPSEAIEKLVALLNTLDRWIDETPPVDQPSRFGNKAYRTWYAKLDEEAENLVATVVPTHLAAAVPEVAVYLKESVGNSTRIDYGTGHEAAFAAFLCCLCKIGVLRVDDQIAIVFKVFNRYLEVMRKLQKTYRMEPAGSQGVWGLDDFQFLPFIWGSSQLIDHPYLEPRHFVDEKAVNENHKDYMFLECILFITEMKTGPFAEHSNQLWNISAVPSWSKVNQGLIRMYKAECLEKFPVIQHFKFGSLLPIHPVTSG
UniProt P06454: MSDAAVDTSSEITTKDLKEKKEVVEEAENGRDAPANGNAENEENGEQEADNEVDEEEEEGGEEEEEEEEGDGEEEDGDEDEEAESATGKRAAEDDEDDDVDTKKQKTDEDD
UniProt Q93096: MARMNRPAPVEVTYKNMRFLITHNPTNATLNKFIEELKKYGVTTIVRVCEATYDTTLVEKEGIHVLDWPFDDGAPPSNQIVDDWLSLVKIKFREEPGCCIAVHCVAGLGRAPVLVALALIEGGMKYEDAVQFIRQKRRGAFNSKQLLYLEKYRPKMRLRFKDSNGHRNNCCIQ
UniProt P11216: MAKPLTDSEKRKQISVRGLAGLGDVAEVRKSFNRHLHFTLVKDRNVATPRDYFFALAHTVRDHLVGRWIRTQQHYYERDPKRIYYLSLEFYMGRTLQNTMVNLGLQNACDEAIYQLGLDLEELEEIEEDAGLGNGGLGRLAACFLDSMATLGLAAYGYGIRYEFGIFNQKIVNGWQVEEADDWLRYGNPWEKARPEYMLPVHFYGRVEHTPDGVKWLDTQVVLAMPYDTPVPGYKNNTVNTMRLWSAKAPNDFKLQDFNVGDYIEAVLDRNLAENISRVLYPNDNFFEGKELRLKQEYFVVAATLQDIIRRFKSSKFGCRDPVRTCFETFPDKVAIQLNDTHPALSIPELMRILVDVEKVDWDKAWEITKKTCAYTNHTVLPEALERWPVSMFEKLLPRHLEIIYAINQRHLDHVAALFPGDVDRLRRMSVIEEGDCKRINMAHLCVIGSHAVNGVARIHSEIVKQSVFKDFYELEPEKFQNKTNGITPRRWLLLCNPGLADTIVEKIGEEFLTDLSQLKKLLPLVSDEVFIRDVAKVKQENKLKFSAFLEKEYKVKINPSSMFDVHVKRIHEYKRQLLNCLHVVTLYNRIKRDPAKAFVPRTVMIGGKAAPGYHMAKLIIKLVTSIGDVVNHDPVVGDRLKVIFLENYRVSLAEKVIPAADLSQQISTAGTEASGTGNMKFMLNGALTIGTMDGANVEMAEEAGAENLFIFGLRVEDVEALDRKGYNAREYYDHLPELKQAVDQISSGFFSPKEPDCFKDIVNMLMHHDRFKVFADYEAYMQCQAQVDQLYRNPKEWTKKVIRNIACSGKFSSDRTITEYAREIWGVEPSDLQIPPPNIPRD
UniProt Q13308: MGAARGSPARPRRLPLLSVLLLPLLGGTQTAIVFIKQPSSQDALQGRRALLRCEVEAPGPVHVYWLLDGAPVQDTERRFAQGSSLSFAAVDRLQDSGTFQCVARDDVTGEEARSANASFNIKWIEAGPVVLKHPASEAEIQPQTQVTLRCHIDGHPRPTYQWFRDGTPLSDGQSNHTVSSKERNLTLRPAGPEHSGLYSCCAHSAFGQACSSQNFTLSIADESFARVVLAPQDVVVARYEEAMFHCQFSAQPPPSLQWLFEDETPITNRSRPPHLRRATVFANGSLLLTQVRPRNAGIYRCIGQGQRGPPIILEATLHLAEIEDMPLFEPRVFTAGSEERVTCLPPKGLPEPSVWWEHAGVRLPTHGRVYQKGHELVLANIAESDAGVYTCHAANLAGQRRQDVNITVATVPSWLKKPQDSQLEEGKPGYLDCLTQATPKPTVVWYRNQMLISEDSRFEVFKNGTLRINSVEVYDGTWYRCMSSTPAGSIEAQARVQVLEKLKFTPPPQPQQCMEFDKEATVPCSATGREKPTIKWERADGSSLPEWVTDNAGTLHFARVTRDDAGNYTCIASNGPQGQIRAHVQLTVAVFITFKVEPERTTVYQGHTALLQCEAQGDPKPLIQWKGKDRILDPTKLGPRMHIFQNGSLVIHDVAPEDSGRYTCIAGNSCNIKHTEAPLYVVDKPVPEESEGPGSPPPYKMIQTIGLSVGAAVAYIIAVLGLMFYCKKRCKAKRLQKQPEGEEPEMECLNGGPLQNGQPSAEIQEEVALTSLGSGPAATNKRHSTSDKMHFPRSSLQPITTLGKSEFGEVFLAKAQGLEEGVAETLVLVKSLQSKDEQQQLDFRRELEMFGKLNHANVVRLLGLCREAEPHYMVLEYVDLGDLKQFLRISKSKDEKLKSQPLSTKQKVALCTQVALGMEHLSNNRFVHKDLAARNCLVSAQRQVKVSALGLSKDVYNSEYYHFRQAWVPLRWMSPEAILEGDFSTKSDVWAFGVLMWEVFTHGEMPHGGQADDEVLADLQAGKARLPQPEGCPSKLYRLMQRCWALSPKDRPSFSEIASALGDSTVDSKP
UniProt P25786: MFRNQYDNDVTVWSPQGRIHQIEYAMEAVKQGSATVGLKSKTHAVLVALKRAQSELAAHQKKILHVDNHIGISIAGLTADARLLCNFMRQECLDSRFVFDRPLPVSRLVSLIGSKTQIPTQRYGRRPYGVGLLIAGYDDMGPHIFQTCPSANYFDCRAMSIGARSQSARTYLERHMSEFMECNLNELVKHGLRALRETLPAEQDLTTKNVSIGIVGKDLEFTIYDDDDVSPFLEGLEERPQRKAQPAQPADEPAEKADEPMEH
UniProt O75832: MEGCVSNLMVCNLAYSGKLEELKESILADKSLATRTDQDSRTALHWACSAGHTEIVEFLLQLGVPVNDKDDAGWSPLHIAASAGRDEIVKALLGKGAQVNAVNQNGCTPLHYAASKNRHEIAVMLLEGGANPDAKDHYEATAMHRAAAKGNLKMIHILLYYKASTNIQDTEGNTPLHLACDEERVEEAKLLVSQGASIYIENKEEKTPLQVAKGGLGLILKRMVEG
UniProt P18433: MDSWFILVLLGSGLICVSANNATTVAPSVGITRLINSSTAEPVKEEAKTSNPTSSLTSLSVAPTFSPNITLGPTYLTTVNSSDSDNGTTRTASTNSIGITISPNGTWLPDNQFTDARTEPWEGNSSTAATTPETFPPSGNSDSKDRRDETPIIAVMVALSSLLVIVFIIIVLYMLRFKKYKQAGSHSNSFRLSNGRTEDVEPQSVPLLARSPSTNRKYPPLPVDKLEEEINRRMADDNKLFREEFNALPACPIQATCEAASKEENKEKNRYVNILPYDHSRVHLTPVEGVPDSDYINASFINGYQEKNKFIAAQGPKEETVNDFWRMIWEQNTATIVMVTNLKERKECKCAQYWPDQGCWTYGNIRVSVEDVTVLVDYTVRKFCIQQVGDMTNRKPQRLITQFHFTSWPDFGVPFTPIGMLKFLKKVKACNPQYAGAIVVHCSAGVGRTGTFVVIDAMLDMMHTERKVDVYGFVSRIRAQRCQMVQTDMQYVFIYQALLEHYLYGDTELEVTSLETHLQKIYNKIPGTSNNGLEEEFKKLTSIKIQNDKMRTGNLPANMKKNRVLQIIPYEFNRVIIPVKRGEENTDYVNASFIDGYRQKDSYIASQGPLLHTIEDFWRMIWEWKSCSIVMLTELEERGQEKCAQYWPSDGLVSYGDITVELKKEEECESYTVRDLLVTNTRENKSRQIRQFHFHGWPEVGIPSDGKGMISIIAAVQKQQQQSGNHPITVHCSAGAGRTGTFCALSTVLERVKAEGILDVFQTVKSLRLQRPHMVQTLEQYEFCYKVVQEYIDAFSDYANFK
UniProt Q9UL46, whole entry, looked up: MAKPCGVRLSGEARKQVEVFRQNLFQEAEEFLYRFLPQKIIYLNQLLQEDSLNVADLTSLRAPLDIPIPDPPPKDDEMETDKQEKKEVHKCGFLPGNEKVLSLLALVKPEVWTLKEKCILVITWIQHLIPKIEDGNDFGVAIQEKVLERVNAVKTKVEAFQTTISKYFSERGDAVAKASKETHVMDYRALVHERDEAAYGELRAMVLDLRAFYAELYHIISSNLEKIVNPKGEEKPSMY
UniProt Q16401: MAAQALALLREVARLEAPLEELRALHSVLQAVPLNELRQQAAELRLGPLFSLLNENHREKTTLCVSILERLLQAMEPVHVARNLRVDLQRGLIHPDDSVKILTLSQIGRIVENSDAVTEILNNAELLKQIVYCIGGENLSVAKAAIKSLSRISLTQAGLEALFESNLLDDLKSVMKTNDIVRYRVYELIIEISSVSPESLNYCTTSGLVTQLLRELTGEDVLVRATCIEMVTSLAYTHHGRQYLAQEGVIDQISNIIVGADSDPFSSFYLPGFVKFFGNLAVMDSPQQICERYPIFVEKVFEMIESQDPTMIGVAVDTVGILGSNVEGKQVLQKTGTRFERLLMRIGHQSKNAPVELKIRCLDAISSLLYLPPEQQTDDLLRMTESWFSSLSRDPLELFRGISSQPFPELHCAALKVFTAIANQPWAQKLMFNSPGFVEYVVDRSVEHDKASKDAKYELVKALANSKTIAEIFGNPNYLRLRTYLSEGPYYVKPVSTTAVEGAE
UniProt P20962: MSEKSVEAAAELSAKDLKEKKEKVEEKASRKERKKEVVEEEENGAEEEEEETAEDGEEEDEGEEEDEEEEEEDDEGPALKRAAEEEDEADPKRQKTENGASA

Compound in assay [2]: NC(=O)c1cnc(N[C@@H]2CCCC[C@@H]2N)nc1Nc1cccc(-n2nccn2)c1
In short, it runs like this:
as §1

Compound in assay [3]: NC1(c2ccc(-c3nc4ccn5c(=O)[nH]nc5c4cc3-c3ccccc3)cc2)CCC1
The method in brief:
as §1

Compound in assay [4]: NCC(=O)Nc1ccc(-n2nc(C(F)(F)F)cc2-c2ccc3c(ccc4ccccc43)c2)cc1
The method in brief: as §1

Compound in a further assay: Nc1ccccc1NC(=O)c1ccc(CNC(=O)OCc2cccnc2)cc1 [entinostat]
The method in brief:
as §1

Compound in the next assay: O=C(CCCCCCC(=O)Nc1ccccc1)NO [vorinostat]
In short, it runs like this:
as §1

Compound in another assay: O=C(CCCCCCNC(=O)c1cnc(N(c2ccccc2)c2ccccc2Cl)nc1)NO [citarinostat]
The method in brief:
as §1

Compound in a further assay: O=C(O)c1ccc2c(c1)nc(Nc1cccc(Cl)c1)c1ccncc12 [silmitasertib]
The method in brief: as §1

Compound in assay [5]: O=C1NC(=O)C(c2cnc3ccccn23)=C1c1cn2c3c(cc(F)cc13)CN(C(=O)N1CCCCC1)CC2
The method in brief: as §1

Compound in assay [6]: c1cc(OCCN2CCCCC2)cc(-c2n[nH]c3ccc(-c4nnc[nH]4)cc23)c1
The method in brief: as §1

This is one part of the list.

Turning to PSMF1 (UniProt Q92530), the log2 fold change in [1] is inactive: -0.007; in assay [2], inactive: -0.038; in assay [3], inactive: -0.031; in assay [4] it was inactive: -0.042; with entinostat, inactive: -0.007; in the assay with vorinostat, inactive: -0.011. Moreover, the log2 fold change is inactive: 0.033 with citarinostat, inactive: 0.052 in the assay with silmitasertib, inactive: -0.062 in assay [5] and inactive: 0.027 in assay [6].
In the case of PYGL (UniProt P06737), the log2 fold change in assay [1] was inactive: 0.135; in assay [2], inactive: 0.012; in [3], inactive: -0.023; in [4], inactive: 0.016; with entinostat, inactive: 0.028; with vorinostat, inactive: 0.01. The log2 fold change with citarinostat is inactive: 0.039; with silmitasertib, inactive: 0.034; in assay [5], inactive: -0.043; in [6], inactive: -0.041.
Take PTPA (UniProt Q15257): the log2 fold change in assay [1] was inactive: -0.022; in assay [2], inactive: 0.001; in assay [3], inactive: -0.021; in [4], inactive: 0.028; in the assay with entinostat, inactive: 0; with vorinostat it was inactive: 0.004. Further, the log2 fold change in the assay with citarinostat was inactive: 0.028; in the assay with silmitasertib, inactive: -0.027; in assay [5], inactive: -0.021; in [6], inactive: -0.015.
As to PTMA (UniProt P06454), the log2 fold change in [1] is inactive: 0.279; in assay [2], inactive: 0.2; in [3], inactive: 0.217; in assay [4] it was inactive: 0.157; with entinostat it was inactive: 0.052; with vorinostat, inactive: -0.026. Moreover, the log2 fold change in the assay with citarinostat was inactive: -0.018; with silmitasertib it was active: -0.628; in assay [5], inactive: 0.021; in [6] it was inactive: 0.099.
For PTCD3 (UniProt Q96EY7), the log2 fold change was inactive: 0.056 in [1]; inactive: 0.081 in assay [2]; inactive: -0.032 in assay [3]; inactive: 0.125 in [4]; inactive: 0.018 with entinostat; inactive: 0.097 with vorinostat. The log2 fold change with citarinostat was inactive: 0.046; with silmitasertib, inactive: -0.07; in assay [5], inactive: -0.015; in assay [6] it was inactive: 0.023.
As to PTP4A1 (UniProt Q93096), the log2 fold change is inactive: -0.035 in assay [1]; inactive: -0.202 in [2]; inactive: -0.007 in [3]; inactive: 0.016 in assay [4]; inactive: 0.039 in the assay with entinostat; inactive: -0.029 in the assay with vorinostat. In addition, the log2 fold change in the assay with citarinostat is inactive: 0.063; with silmitasertib it was inactive: -0.001; in [5], inactive: -0.075; in [6], inactive: 0.059.
As to PYGB (UniProt P11216), the log2 fold change in [1] was inactive: 0.209; in assay [2] it was inactive: -0.077; in assay [3], inactive: -0.018; in assay [4], inactive: -0.041; in the assay with entinostat, inactive: -0.003; with vorinostat, inactive: 0.063. Besides, the log2 fold change with citarinostat is inactive: 0.033; with silmitasertib it was inactive: -0.005; in assay [5] it was inactive: -0.105; in assay [6] it was inactive: -0.105.
For PTK7 isoform 6 (UniProt Q13308), the log2 fold change in [1] was inactive: -0.093; in [2], inactive: 0.057; in [3], inactive: -0.162; in assay [4], inactive: 0.041; with entinostat, inactive: 0.012; with vorinostat, inactive: -0.07. Besides, the log2 fold change with citarinostat was inactive: -0.046; in the assay with silmitasertib it was inactive: 0.134; in [5] it was inactive: -0.137; in [6] it was inactive: 0.018.
For PSMA1 isoform 2 (UniProt P25786), the log2 fold change was inactive: 0.039 in assay [1]; inactive: 0.054 in assay [2]; inactive: 0.044 in [3]; inactive: 0.066 in assay [4]; inactive: -0.022 with entinostat; inactive: -0.003 with vorinostat. Further, the log2 fold change with citarinostat was inactive: -0.034; in the assay with silmitasertib it was inactive: 0.004; in assay [5], inactive: 0.015; in assay [6], inactive: -0.054.
For the target PSMD10 (UniProt O75832), the log2 fold change in assay [1] is inactive: -0.01; in [2] it was inactive: -0.074; in assay [3] it was inactive: -0.099; in assay [4], inactive: 0.022; with entinostat, inactive: 0.057; with vorinostat, inactive: 0.039. The log2 fold change in the assay with citarinostat is inactive: 0.083; with silmitasertib, inactive: 0.068; in assay [5], inactive: -0.107; in [6] it was inactive: 0.016.
In the case of PTPRA (UniProt P18433), the log2 fold change in assay [1] was inactive: -0.172; in assay [2], inactive: -0.009; in assay [3] it was inactive: -0.001; in assay [4], inactive: 0.026; in the assay with entinostat it was inactive: -0.04; in the assay with vorinostat, inactive: 0.028. In addition, the log2 fold change with citarinostat is inactive: 0.062; with silmitasertib, inactive: 0.008; in assay [5] it was inactive: -0.018; in assay [6], inactive: -0.039.
For the target PSME2 (UniProt Q9UL46), the log2 fold change in assay [1] was inactive: -0.062; in [2] it was inactive: -0.021; in [3], inactive: -0.067; in assay [4] it was inactive: -0.023; with entinostat, inactive: -0.008; with vorinostat, inactive: 0.023. For the same target, the log2 fold change with citarinostat was inactive: 0.016; with silmitasertib, inactive: 0.023; in [5], inactive: 0.007; in assay [6], inactive: -0.048.
For the target PTPA (UniProt A6PVN8), the log2 fold change was inactive: -0.015 in assay [1]; inactive: -0.057 in assay [2]; inactive: -0.062 in [3]; inactive: -0.003 in [4]; inactive: -0.04 in the assay with entinostat; inactive: 0.099 with vorinostat. Also, the log2 fold change in the assay with citarinostat was inactive: -0.098; with silmitasertib, inactive: 0.266; in assay [5], inactive: 0.05; in [6], inactive: -0.05.
As for PSMD5 (UniProt Q16401), the log2 fold change in [1] is inactive: -0.001; in assay [2], inactive: 0.009; in assay [3], inactive: -0.094; in assay [4], inactive: -0.009; with entinostat, inactive: 0.01; with vorinostat it was inactive: 0.008. The log2 fold change was inactive: 0.033 with citarinostat, inactive: 0.038 with silmitasertib, inactive: -0.032 in assay [5] and inactive: -0.009 in assay [6].
Take PTMS (UniProt P20962): the log2 fold change in assay [1] is inactive: 0.08; in [2], inactive: 0.034; in assay [3], inactive: 0.021; in [4], inactive: 0.045; with entinostat, inactive: 0.019; in the assay with vorinostat, inactive: -0.048. Besides, the log2 fold change with citarinostat is inactive: 0.012; with silmitasertib, inactive: -0.065; in assay [5], inactive: 0.029; in assay [6] it was inactive: 0.023.

These data come from the supplement of paper PMC10849652.
